From doi:10.1101/2022.12.23.521824
Numbering of substitutions follows the chain as printed. In names and notes the source's numbering stands. Results are given in words; binding and its absence hold for the method and conditions named. Some binding calls cover weakened binding; strength is not graded here. Sequences can lack the tags named with a protein. Each block holds one molecule with its values, some of them ahead of it.

The chains behind the UniProt entries cited, without tags or fusion partners.
UniProt P52297: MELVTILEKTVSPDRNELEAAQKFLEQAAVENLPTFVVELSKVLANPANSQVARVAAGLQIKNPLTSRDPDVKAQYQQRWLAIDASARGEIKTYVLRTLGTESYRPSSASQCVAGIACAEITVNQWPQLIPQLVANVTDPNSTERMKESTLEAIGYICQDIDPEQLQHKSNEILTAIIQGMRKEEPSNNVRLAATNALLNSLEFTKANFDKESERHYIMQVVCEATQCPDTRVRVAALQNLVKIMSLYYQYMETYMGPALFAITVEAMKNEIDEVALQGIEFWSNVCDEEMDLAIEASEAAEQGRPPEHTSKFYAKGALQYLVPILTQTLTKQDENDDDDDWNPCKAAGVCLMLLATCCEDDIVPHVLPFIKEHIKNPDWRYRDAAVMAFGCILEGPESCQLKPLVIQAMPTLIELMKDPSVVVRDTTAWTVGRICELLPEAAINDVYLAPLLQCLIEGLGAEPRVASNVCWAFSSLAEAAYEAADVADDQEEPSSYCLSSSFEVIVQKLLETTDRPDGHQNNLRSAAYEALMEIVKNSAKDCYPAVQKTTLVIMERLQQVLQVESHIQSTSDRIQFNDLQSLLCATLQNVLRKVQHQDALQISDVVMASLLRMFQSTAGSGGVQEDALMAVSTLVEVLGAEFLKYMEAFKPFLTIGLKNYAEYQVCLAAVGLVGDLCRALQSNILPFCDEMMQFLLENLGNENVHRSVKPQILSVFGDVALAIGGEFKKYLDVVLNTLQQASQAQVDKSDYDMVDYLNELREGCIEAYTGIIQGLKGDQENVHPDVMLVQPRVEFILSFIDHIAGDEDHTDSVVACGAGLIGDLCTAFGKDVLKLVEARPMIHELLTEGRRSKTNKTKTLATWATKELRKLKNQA

Key:
[1] = target: T1, GST-GFP-Haus8^1-150 (Xenopus laevis) (UniProt Q0IHJ3); test: TIRF microscopy of binding to immobilised microtubules
T1 sequence: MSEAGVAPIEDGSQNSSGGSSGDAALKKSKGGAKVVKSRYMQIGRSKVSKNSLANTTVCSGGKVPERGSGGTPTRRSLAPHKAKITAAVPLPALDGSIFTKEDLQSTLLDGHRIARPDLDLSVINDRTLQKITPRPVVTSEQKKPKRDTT

[2] = target: GST-importin-β (Xenopus laevis) (UniProt P52297); test: pull-down

- binding [1]: binds
Molecule: GST-importin-β (from UniProt P52297 1-876)

- binding [2]: binds
B1: Strep-GFP-Haus8^1-150 ΔNLS1 (K27A/K28A) (domain or fragment, UniProt Q0IHJ3 1-150)
chain: T1 sequence with K27A, K28A

- binding [2]: binds
B2: Strep-GFP-Haus8^1-150 with mutations to both NLS sites (K27A/K28A and K143A/K144A) (domain or fragment, UniProt Q0IHJ3 1-150)
chain: T1 sequence with K27A, K28A, K143A, K144A

- binding [2]: binds
B3: Strep-GFP-Haus8^1-150 (domain or fragment, UniProt Q0IHJ3 1-150)
chain: T1 sequence

- binding [2]: binds
B4: Strep-GFP-Haus8^1-150 ΔNLS2 (K143A/K144A) (domain or fragment, UniProt Q0IHJ3 1-150)
chain: T1 sequence with K143A, K144A
